Among all 52,000 sequences or so, about 210 (0.4%) were called active.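 The calls were made as follows: active = gene whose silencing raises cell survival under the drug, median off-target-corrected z-score across its silencing RNAs 2 or more; inactive = the rest.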 The list shows a part of the results.

Results on 103 sequences are retold here after PubChem BioAssay AID1347423 (Functional Genomics Laboratory (NCATS/FGL), 2020).

The assay in a line: Resistance to Poly (ADP-Ribose) Polymerase inhibitor: Gene Identification via Genome-wide siRNA Screen. Conditions: mouse BRCA2 R2336H ES cells, olaparib, CellTiter-Glo viability; active compounds read high. In a few lines:
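Genome-wide siRNA screen (3 siRNAs/gene, 20 nM) in mouse ES cells carrying hypomorphic BRCA2 R2336H; olaparib 500 nM added 48 h post-transfection, CellTiter-Glo viability 72 h later. Normalized to plate-median negative control; MAD z-scores, gene median, seed-adjusted.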
Background: ATP-based viability assays read luminescence as a measure of living cells.
Regarding GGUUCUCAUUGUUGUUGUATT against Prkcb1, the z-score is inactive: -0.453. Consider “GGUUUUCAGUCACACAUCATT against 4732493F09Rik”, for which the z-score is inactive: -1.42. As to “GGGUUGCCAAGACUUGAUATT against 1190003K14Rik”, the z-score is inactive: -0.838. Take GGAGUGACUCCAAAUUUACTT against C6.1A: the z-score was inactive: 0.366. Under GGAAAAUUACUCCACUUUUTT against R3hdm stands inactive: -0.411. Consider GGUGUCAGUGAAGGCGAAATT against Hist1h1a, for which the z-score was inactive: -0.264. In the case of “GCGGAUGCCAGAUGAUUAUTT against 1110008B24Rik”, the z-score was inactive: 0.989.

On to CGAUAAAUCACCUCAAGAUTT against Kcnn4, for which the z-score is inactive: 0.471. With “GGGAAGGUAAGGCAUAAGCTT against 9430023B20Rik”, the z-score was inactive: 0.354. Then GGAGAAGCUAGAGUUCAUGTT against Fosl2, with inactive: -1.28; and GGUUCUUUGUGAACUUCCCTT against Cygb, with inactive: 0.163; and GGAUCACAUACGUACACAATT against Dpp8, with inactive: 0.248. For the sequence CGCAAUAAAGAAGAUAAACTT against Slc35f3, the z-score is inactive: -0.122. Consider GAUCUUUGUCCUCAUUCUCTT against Olfr1206, for which the z-score is inactive: 0.359. Consider GCACGAGGAUUCAGAUAUCTT against Gusb, for which the z-score was inactive: 0.512. Take UACUUGUAGCCAUGGCUCUTT against Olfr685: the z-score was inactive: -2.19. With GGUGAACAUAGAUCACGAGTT against Rgs16, the z-score was inactive: -0.212.

Take GGAAUUCUUCAUCCAUGGATT against Olfr570: the z-score was inactive: -0.618. On to GGCAAAUAGUUUCUUCAAUTT against Npnt, for which the z-score was inactive: -0.283. As to GGGAUUCAUACUACUUAACTT against Olfr304, the z-score was inactive: 0.176. As to GGGACAUUUCCAUCCUUUUTT against Prdx6-rs1, the z-score was inactive: 1.1. Consider “GCCAAAACAAGUAUGCCCUTT against 4921511C04Rik”, for which the z-score is inactive: 0.215.

GGACUACAAGGAUAACCCGTT against Sf4: the z-score is inactive: 0.406. Under GGGUUAAAGCGAGUGGGUCTT against BC023814 stands inactive: -0.57; under CCAUAUAUGAUAGGAAACUTT against Pon2, inactive: 0.627; under CGGUGCUUCUGAAACUAGATT against Lrrc3, inactive: -0.192. Under GGCCUGAGAGUAACUCAAATT against Fhit stands inactive: 2.24; under GCCCGUAUGGAUUUCACACTT against Tcte1l, inactive: -0.327; under GCACACCAGAUCUACUUCUTT against Cyp2b9, inactive: 0.172. As to GCUCAUAAGUCUAUUACUGTT against Asb14, the z-score was inactive: -0.282. As for GGCUCAACGGCUUAGGGAATT against B3gat3, the z-score is inactive: 0.417. Regarding GGGUUCGAUACGACUGCCATT against Arhgef7, the z-score is inactive: -0.729. For GGAUCACUAACUUUUCCAATT against Trpc3, the z-score was inactive: 0.77. As to GCCGAAUCCGAACAAAACCTT against Tat, the z-score is active: 1.35. As to GGCCAACUGAUUAAGAAACTT against Chrnb1, the z-score was active: 2.28. Take GGUAUCAUGGAGGAGAUGGTT against Lhx9: the z-score is inactive: -0.201.

Consider “GGGCCUAAAAGGGUUAAGGTT against C330019G07Rik”, for which the z-score is inactive: 0.93. Then GCGAGUCUAUGUGUUCCCUTT against Cox4i2, with inactive: -0.46.

As to GCCUCGUGUAUCACAGAAUTT against Bpy2ip1, the z-score was inactive: 0.828. As to “CCAAGGCCGAAAAGCCUGUTT against 2510038A11Rik”, the z-score is inactive: 0.36. GGAGCUUCACUAAGUAACATT against Zfp239: the z-score is inactive: -0.416. Then “GCUUCUCAAGAGUGAAAUATT against 2600014C01Rik”, with inactive: -1. In the case of GGAACAACAUGAUUGUCGUTT against Ugt1a6, the z-score was inactive: -0.575. Regarding GGUCAAAUAUGGAGAUCUUTT against Atp2b3, the z-score was inactive: 0.994.

As to GGCCUUUAUCAGCGGUGAUTT against Srd5a2, the z-score is inactive: -1.99. Regarding “GGACUGAGAACCAGAUCAUTT against 1500026D16Rik”, the z-score was inactive: 2.2. Consider GGAAAUAUAUGUCAUGUCATT against Nars, for which the z-score is inactive: 0.0093.

For the sequence CCAUGUCAACGACCAUCAUTT against Glis2, the z-score was inactive: 2.11.

On to GGUAAAAUGUACUCAAUGUTT against Clp1, for which the z-score was inactive: 0.0889. GGUCGACAUUUUGAAGGAGTT against Fthl17: the z-score is inactive: -1.43. Turning to “CCCGUUCAAGCAAUUACAUTT against 6030408C04Rik”, the z-score is inactive: 0.256. Consider GGUGAACUUUACCUUCAACTT against Mov10, for which the z-score is inactive: 0.0478. With GCCACGCACUAUAAAGAUUTT against Pscd1, the z-score was inactive: -0.804.

In the case of CGCCCAUGUACAGAUUUGUTT against Olfr429, the z-score is inactive: -1.91. Under CGGCUCCUUUCAUAUUACCTT against Akap7 stands inactive: -0.638; under CCACUAUGACUUCAGGUGUTT against Olfr1465, inactive: 0.337. Under “GGAAUGAUAGAAAAUGGACTT against 9130002C22Rik” stands inactive: 0.219; under GCUAGAUGCUAUGAAGCGATT against Ap3b1, inactive: -0.42.

As to GCUCUACUGCGCUACCAAGTT against Fgf3, the z-score was inactive: -1.21.

Take GGGCAACCUGUCACAUUAUTT against Spam1: the z-score is inactive: -2.56. On to “GCAGGGUAUUGUCAAUGGCTT against 0610040J01Rik”, for which the z-score is inactive: 0.373. With GGGAAUUUGAGACCAUUUATT against AI586015, the z-score was inactive: 0.829. GGUUCUGUUAAUGUACCAUTT against Cd53: the z-score is inactive: -0.36. Regarding CCUUUACUGUCCAUUCCGATT against Stxbp2, the z-score was inactive: 0.799.

On to GCCCAAAGAUGACAUCGUATT against Gars, for which the z-score was inactive: -1.86. With “GCCAAUUUGAAUGGGAUGUTT against 2010012C16Rik”, the z-score was inactive: -0.707. Then GCCUAUGGGUCAUUUCAAATT against Dock11, with inactive: -1.18; and CGAUCCCAUGUUGCCUAAUTT against Fut11, with inactive: -0.478; and “GGAGAAACCUGGAAGAAGATT against 6030423D04Rik”, with inactive: -2.03. GAAUAUACUCUUUGUGGUATT against Olfr1220: the z-score is inactive: -0.16. Regarding GGCAGAACAUUAAUAGAUATT against Polr3h, the z-score was inactive: 1.19. As for “GCUGUACGCCAAUGUGUACTT against D8Ertd457e”, the z-score was inactive: 0.021. Consider CCGAUGACGAACAGUUUGATT against Eif4ebp3, for which the z-score was inactive: -1.14. As for CGAGCAAUUAAAUUCCUGUTT against Api5, the z-score was inactive: 0.238.

Consider GGAGCUGGACAAGUUUAAGTT against Tjp4, for which the z-score is inactive: 1.14. For the sequence “CCCGUCACCACUUAACAUGTT against 6530401P13”, the z-score is inactive: 0.703. For the sequence GGACCAUCAGAGGAGAACUTT against Cuedc2, the z-score was inactive: 0.0577. Take GGAGAUUAUUAACUUCACCTT against Hcn3: the z-score is inactive: -0.386.

Turning to “GGAAGUUUGGUGGUCCAGUTT against 2410004L22Rik”, the z-score is inactive: -2.75. For the sequence GCCUUUUCCUGGUACUCGGTT against Ceacam13, the z-score was inactive: 1.27.

For CGGAUGGAGCUAUGAUGUGTT against Ndufs4, the z-score was inactive: -0.897. On to GGCUUCGCUCUGGUUUACUTT against Rap1b, for which the z-score is inactive: 0.302. For “GGUGAAACAGCGAAUAGGUTT against 2410005H09Rik”, the z-score is inactive: -0.437.

In the case of “GGGUGAAUUAAAUUAGUUGTT against C130079G13Rik”, the z-score was inactive: 0.0696. As for “GGAAGUGAUUUACAGUUUCTT against 2310058J06Rik”, the z-score is inactive: -0.344. Turning to AACAUUGCUUACCUUAGUGTT against Mrgprb1, the z-score is inactive: 0.713. On to “GGUAGACAAGCUGUUUGAUTT against 4632415K11Rik”, for which the z-score is inactive: 0.819. As for “GGAAUGUCACUUUGACUCUTT against 6530401D17Rik”, the z-score is inactive: 0.127. Then “GGUGAUAUAUCCAUCAAAATT against 0610033I05Rik”, with inactive: 0.481. For GCUGCACAAGUGCAUUUUUTT against Srp14, the z-score was inactive: -1.4. Consider CAUUGUCAUUCUGCUGGCATT against Olfr1249, for which the z-score was inactive: 1.06. For the sequence GCAUCAGAGGGAUUUCACUTT against Slc35d3, the z-score is inactive: -1.02.

Take “GCAUAUCCUCCAAAAGAAATT against 2010106E10Rik”: the z-score is inactive: -0.453. For the sequence GCCUUAUCCCUCAUGUUACTT against Pde1c, the z-score was inactive: 1.14. Under “GGAAAAAUGGAAACCUAAGTT against 9130020G22Rik” stands inactive: 0.47; under GAUGCAGUGCAAAGUAUACTT against Cldn9, inactive: -1.9. Under GCAAAUUGAGCUCCUACUCTT against Traip stands inactive: 1.03; under GGCACAAAUGAAUUCAUACTT against BC003267, inactive: -1.67; under GGGUUCUGCAUGUUGAUUCTT against Chm, inactive: -0.121. GGAGGUUUUCUGGUAGCUGTT against Rnf138: the z-score is inactive: -1.61. Under GGAGACAGAGAAGAUUUGUTT against Mia2 stands inactive: -1.33.

Turning to “GGUACAGUUAACUACAAACTT against C130023O10Rik”, the z-score is inactive: 1.08. As to GCCAGCGACCUUUAGUACATT against Cklfsf1, the z-score was inactive: -0.44.
